Reference: paper PMC7442782, “Molecular basis for DNA repair synthesis on short gaps by mycobacterial Primase-Polymerase C” (Nature Communications, 2020)
Changes are numbered by the printed parent chain. For at least one entry, the source does not settle the construct or the ends of the probe. A weaker result is weaker than the reference pair of the same experiment. Where a protein sequence is shown, tags need not be part of it.

How the values were obtained:
Assay in all cases: 2-aminopurine fluorescence (base flipping)
Prim-PolC N321A = target: T1, Prim-PolC N321A (UniProt A0R5T1); details: 5 mM Ca2+, 250 uM ATP, reduced signal, 2-aminopurine at position 15 of primer oKZ282 (written A), 5'-phosphate on downstream strand, Crystals: 0.05 M Na cacodylate pH 6.5, 2 M ammonium sulfate, 0.01 M MnCl2, 285 K, 300 uM protein:600 uM DNA, 2-AP assay: 0-1 uM protein, 1 uM DNA, recombinant protein, protein details: N-terminal His, label: 2-AP
T1 sequence (looked up, limits assumed): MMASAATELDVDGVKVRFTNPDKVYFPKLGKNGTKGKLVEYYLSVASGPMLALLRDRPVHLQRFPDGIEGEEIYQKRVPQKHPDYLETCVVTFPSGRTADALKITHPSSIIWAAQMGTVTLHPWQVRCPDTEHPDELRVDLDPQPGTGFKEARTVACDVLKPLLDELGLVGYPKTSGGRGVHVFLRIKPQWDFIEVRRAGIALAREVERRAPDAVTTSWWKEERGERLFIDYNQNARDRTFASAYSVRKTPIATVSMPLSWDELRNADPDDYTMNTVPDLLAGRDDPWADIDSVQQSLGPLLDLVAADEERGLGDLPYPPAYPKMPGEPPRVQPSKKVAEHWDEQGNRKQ

Prim-PolC K324A = target: T2, Prim-PolC K324A (UniProt A0R5T1); details: 5 mM Ca2+, 250 uM ATP, 2-aminopurine at position 15 of primer oKZ282 (written A), 5'-phosphate on downstream strand, Crystals: 0.05 M Na cacodylate pH 6.5, 2 M ammonium sulfate, 0.01 M MnCl2, 285 K, 300 uM protein:600 uM DNA, 2-AP assay: 0-1 uM protein, 1 uM DNA, recombinant protein, protein details: N-terminal His, label: 2-AP
T2 sequence (looked up, limits assumed): T1 sequence (looked up, limits assumed) with A321N, K324A

Prim-PolC WT = target: T3, Prim-PolC WT (UniProt A0R5T1); details: 5 mM Ca2+, 250 uM ATP, 2-aminopurine at position 15 of primer oKZ282 (written A), 5'-phosphate on downstream strand, Crystals: 0.05 M Na cacodylate pH 6.5, 2 M ammonium sulfate, 0.01 M MnCl2, 285 K, 300 uM protein:600 uM DNA, 2-AP assay: 0-1 uM protein, 1 uM DNA, recombinant protein, protein details: N-terminal His, label: 2-AP
T3 sequence (looked up, limits assumed): T1 sequence (looked up, limits assumed) with A321N

Row | Sequence | binding result (Prim-PolC N321A) | binding result (Prim-PolC K324A; very modest increase) | binding result (Prim-PolC WT) | binding result (Prim-PolC K324A; slightly reduced signal)
1 | AGTCGCATAGTGTAGTCATGTCGATTCGCCATAG / CTATGAGCGAATCGAC / ACTACACTATGCGACT [2-AP 3-nt gap substrate] | binds more weakly | binds more weakly | binds more weakly | –
2 | AGTCGCATAGTGTAGTCATGTCGATTCGCCATAG / CTATGAGCGAATCGAC / CGACTACACTATGCGACT [2-AP 1-nt gap substrate] | – | – | – | binds more weakly
3 | AGTCGCATAGTGTAGTCATGTCGATTCGCCATAG / CTATGAGCGAATCGAC / TACACTATGCGACT [2-AP 5-nt gap substrate] | – | – | binds more weakly | –
